## Assay results

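Luminescence from an EWS-FLI1 target-promoter (NR0B1) reporter, set against a CMV-promoter reporter, two days after silencing single genes in TC32 Ewing sarcoma cells.
Each siRNA was applied at 20 nM.
A z-score of the log NR0B1-over-CMV signal, less the median of siRNAs with the same seed; more negative means a stronger specific loss of the NR0B1 reporter.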

The strongest results of the screen are mostly left out here.
Sequences are the guide (antisense) strand, without overhang.

strand | gene | seed-corrected z-score
AAGAAGUCUGGAACAAUGG | CMBL | 0.2096
UCCGGGCACAGUUACUCAG | RXFP4 | -1.811
UUUGCACUCACUGAGUUCU | CEACAM5 | 0.6342
UCUGAGUUCUCCAUUAUCC | NSFL1C | -0.3044
AACAUCAUCAUGUACCCUC | IRS4 | 0.09371
UUACAGUCGAGGAUCAAGG | COL5A1 | 0.7382
UUAGUUGAGCUGAUGGUUC | EXOC4 | -0.08788
UUUACACCAAAGUUACUGU | UBOX5 | 0.3988
UAUGUUCUCUUUAAGAAUG | TRAPPC13 | -0.4953
UUAUCUUUCCCUUGUUUCG | BSX | -1.2
UUAUAGGACCCGGUCAUGA | PPP2R2D | 0.4443
AUCGAUUUAAUUGAAACUG | HELZ | 0.4041
UGACUGACUCCUAACAUUG | ACTL6A | 0.03702
UGAAUCUCCUUCGAAAUCC | INPP5E | 0.09794
ACAGUAUUCAAUUCAGACC | DIRC1 | 0.3303
UGACUCUUUAGGUUUGGUC | TMEM169 | 0.127
AUUGAUGUACACGAAGGCC | SUV39H1 | -1.317
UUAAGAGUAAGAGUUGGGU | RNF7 | -1.345
UGAACAACAAUUUCACGCC | FBXO43 | 0.1074
AUUCUGAAGCCGAAUGUGC | LINC01547 | -0.6508
UCUAGGGUAUUCAUUAUGC | SCN9A | -0.1053
AUUUGUAAAAUCAAUUCUC | SERP2 | 1.572
UGGUUUACUAGGAAAUUCG | TFAP2C | 0.6488
UUUGGACAGUCCACGUUUG | CA4 | 0.04916
ACAGUUAAAGCAGUCGUUA | FHL2 | 0.2868
UAAGGUCCAACCCGACUUC | ZDHHC24 | 0.2792
UUUUUGGUAGGUAUCAAGG | HIPK2 | 0.02512
ACAUCUUCUGUGUCCAUGG | ZP3 | 0.2663
UGAAUGAACCCGAAAACUC | LYRM9 | -1.094
UUUGUACCUCAGGAGAUAC | IGLV5-39 | 0.3032
AUACUUCUGUCAAUCCGCC | CDC42SE2 | -0.5252
UUGCUACUCAUUUCUCUCC | ST6GALNAC6 | 0.169
UCCGUAUGAGGCACGAUUC | FAM196A | -0.07352
AGAAGAUCUGAUGAAAGGC | DBX1 | 0.6761
UAAGGGACCUAAGGGAGUG | ARID3B | -0.3418
UCCUCUGUUACAUUCAGCC | OAZ1 | -0.008338
UGAAGAAACGAAUAUGGUG | SMIM21 | 0.595
AUCUGUACUGUUUAAUAGG | MC4R | 0.2441
AAAGUAAGUGAAUCACUCC | DDX3Y | -0.5046
UUUCUGUAUGUGAACAAGU | FABP7 | -0.09499
UUGGUAUCCAUUUUCAGGC | SEZ6L | 1.115
AUGGGAAUGAAUGGGUUUG | C19orf84 | -0.3951
UGGAUAAACAGUGUAAUGC | UNG | 0.3011
UUGGGUAAUACUGCCGCUG | PHC3 | -0.157
UUUCGGAUACUUCCAGCUC | PARN | -0.05597
UAGAGGAUCCGGGUCACUG | RHCG | 0.06528
AAAGGAUUCAAGUCGAGGG | SEC31B | 1.924
UGCUGUUCAGGUAGGAUCC | GPR158 | 1.08
UUUAUUAUAUGGUUGUUAC | RPL41 | 0.7655
UUGUGCUUCAGAUGCUUGC | WNT9A | -0.03191
UUGAUUUUGAUGUCUGGUG | ATF7 | -0.04411

For reference, 5 entries once more:

| strand | gene | seed-corrected z-score |
|---|---|---|
| `UGAAUCUCCUUCGAAAUCC` | INPP5E | 0.09794 |
| `UAGAGGAUCCGGGUCACUG` | RHCG | 0.06528 |
| `UGGAUAAACAGUGUAAUGC` | UNG | 0.3011 |
| `AUUUGUAAAAUCAAUUCUC` | SERP2 | 1.572 |
| `UGACUCUUUAGGUUUGGUC` | TMEM169 | 0.127 |

The results are deposited in PubChem (AID1159506; NCATS, 2015).